The assay is described as follows: qHTS Assay for Lipid Storage Modulators in Drosophila S3 Cells.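 As to cell number change: cells counted by Cell Tracker Red CMTPX staining in the red channel.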 The following applies: BODIPY lipid droplet fluorescence, 18-24 h; for cell number change: measured here: cell count max response, cells fed with added oleic acid. In outline: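 Drosophila S3 cells loaded with oleic acid (400 uM, as added) and compounds at several concentrations; lipid droplets imaged by 488-nm laser-scanning cytometry, 500–530 nm intensity and object ratio to cell channel. Percent activity normalized to 20 uM Triacsin C.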

Setting [1] is: measured here: lipid fluorescence (Fed channel) AC50, cells fed with added oleic acid.
The mark [2] stands for this setting: measured here: cell number channel AC50, cells fed with added oleic acid.

The other results are listed elsewhere or left out. The main result of the screen is listed elsewhere. These columns were measured beside it and carry no call. Compounds called inactive in the main read-out are mostly missing here. The note in brackets gives the kind of curve behind each potency; many fits are weak.

The AC50 is the concentration at which the activity in the assay is half-maximal. The low end stands for activity at low concentration, the high end for activity only at high concentration.

Regarding `CCN1CC(CN(C)Cc2nc(Cc3ccccc3)no2)CC1=O` (stereo not drawn), the cell number change is 4.07%. The AC50 under setting [1] is 0.092 µM [falling, full curve, poor fit].

Regarding `CCOc1ccc(NC(=O)CC2Nc3ccccc3NC2=O)cc1` (stereo not drawn), the cell number change amounted to 35.6%. Also, the AC50 under setting [2] was 6.51 µM [rising, partial curve, poor fit].

For the compound `O=C(Nc1ccccc1)c1nnsc1S(=O)c1ccc(Cl)cc1` (stereo not drawn), the cell number change is -84.7%. In addition, under setting [2], the AC50 was 23.1 µM [falling, partial curve]. The AC50 under setting [1] was 1.3 µM [falling, partial curve, poor fit].

Turning to `CC(=O)c1c(-c2ccccc2)c2cc([N+](=O)[O-])ccc2[nH]c1=O`, the cell number change came out at 24.3%.

Turning to `Clc1ccc2ncc(-c3nnnn3-c3ccccc3)c(-c3ccccc3)c2c1`, the cell number change was 2.38%. For the same compound, the AC50 under setting [1] is 4.61 µM [rising, partial curve].

As to `CCOc1ccc2ncc(S(=O)(=O)c3ccccc3)c(N3CCC4(CC3)OCCO4)c2c1`, the cell number change is -36.7%. Also, the AC50 under setting [2] is 32.6 µM [falling, single point].

With `CCCc1[nH]nc2c1C1(CCOC1C)C(C#N)=C(N)O2` (stereo not drawn), the cell number change was -10.5%. The AC50 under setting [2] was 7.31 µM [falling, single point].

Regarding `Cc1ccc(Cl)cc1NC(=O)CN1CCN(C(=O)C2CCCO2)CC1` (stereo not drawn), the AC50 is, setting by setting: under setting [2], 2.06 µM [rising, partial curve]; under setting [1], 6.51 µM [rising, single point].

Turning to `O=c1cc(-c2ccc(O)cc2)oc2c1ccc1ccccc12`, the cell number change is -7.02%. Under setting [1], the AC50 was 25.9 µM [falling, single point].

With `CCCC1C(=O)Nc2ccccc2N1C(=O)c1ccc(C(C)(C)C)cc1` (stereo not drawn), the cell number change is -55.5%. Also, under setting [2], the AC50 was 18.4 µM [falling, single point]. Further, under setting [1], the AC50 was 20.6 µM [falling, partial curve].

In the case of `C/C(=N\NC(=O)c1c[nH]c2ccccc12)c1ccc(C)o1`, the cell number change amounted to 12.2%. Further, the AC50 under setting [2] was 1.46 µM [rising, partial curve]. Further, under setting [1], the AC50 was 1.03 µM [rising, full curve].

Consider `C/C(=N/NS(=O)(=O)c1ccc(Cl)cc1)c1cccc(NC(=O)c2ccc(Cl)cc2Cl)c1`, for which the cell number change came to 12.6%. Also, under setting [1], the AC50 was 16.4 µM [rising, partial curve, poor fit].

Consider `N#CCC(=O)N1CCN(C=O)CC1`, for which the cell number change is -33.2%. In addition, the AC50 under setting [2] is 0.326 µM [falling, full curve, poor fit]. The AC50 under setting [1] is 4.61 µM [falling, full curve, poor fit].

On to `C=Cc1cccc(NC(=O)COc2ccccc2)c1`, for which the AC50 under setting [2] was 3.66 µM [rising, single point].

With `C=CCN(C(=O)c1csnn1)C(C(=O)NCc1ccc(F)cc1)c1sccc1C` (stereo not drawn), the cell number change was -23.8%.

Regarding `Cc1nnc(SCc2nc3ccccc3s2)n1N`, the AC50 reads like this: under setting [2], 0.92 µM [rising, full curve]; under setting [1], 4.11 µM [rising, full curve].

These data come from PubChem BioAssay AID2685 (National Center for Advancing Translational Sciences (NCATS), 2010).
